For at least one compound, name, drawing or mass did not settle the structure.
System: intraconal orbital fat adipocytes
Assay: 21-day retrobulbar injection into orbital fat, histology and image analysis
Format: in vivo, Lewis rats (Rattus norvegicus)
Settings: rat
From the text: Free latanoprost, EggPC-latanoprost, POPC-latanoprost, and DCA were each introduced by retrobulbar injection into the orbit of the rat eye to ascertain its effect on intraconal fat deposits over a three-week period.
Twenty-four male Lewis rats (Rattus norvegicus) at 8-10 weeks of age were used in the study. Their weights at the start of the study ranged from 250-300 g.
Six rats were assigned to each of four groups at least one day prior to drug dosing using a selection designed to achieve similar group mean body weights. Animals in Groups A-D were weighed prior to injection and weekly thereafter. […]
The intraconal fat of the orbital sections were examined under light microscopy and images scanned for further analysis. The areas of intraconal orbital fat were cropped and the adipocytes counted using ImageJ software (Rasband W.S., US National Institutes of Health, Bethesda, Md.) to determine adipocyte density using a previously described method. […] The density of adipocytes in the intraconal orbital fat area was calculated and compared between groups via a 2-tailed Student t test.
Adipocyte size heterogeneity was analyzed in the cropped images of the intraconal fat light using a maximally stable extremal regions-based segmentation algorithm implemented in MATLAB (Mathworks, Natick, Mass.). […]

`C[C@H](CCC(=O)O)[C@H]1CC[C@H]2[C@@H]3CC[C@@H]4C[C@H](O)CC[C@]4(C)[C@H]3C[C@H](O)[C@]12C` [DCA, deoxycholic acid] was tested, and the “heterogeneity among adipocytes in the intraconal space as compared to naïve contra-lateral control orbits” value (orbital injection, day 21, computer-aided morphological analysis) was “more heterogeneity” and the “change in the area of the retrobulbar fat complex after injection (significance)” value (retrobulbar injection, day 21, quantitative image analysis) was “significant increases”.

Reference: patent publication US11452703B2, “Methods and compositions for reducing adipocyte numbers” (Peregrine Ophthalmic PTE LTD., priority 2020, dated 2022)
